The experiment concerns the target Recombinant human mannose-binding lectin (MBL) (human) (UniProt P11226). Nature of the experiment: SPR; reverse configuration: C1q or MBL immobilised by amine coupling on CM5; soluble BMP-1 (50 nM) or mTLL-1 (150 nM) injected; 25 °C; both purified.

Amino acid sequences for entries named in this document (tags omitted). Residues count along the entry.
UniProt P11226, residues 21-248: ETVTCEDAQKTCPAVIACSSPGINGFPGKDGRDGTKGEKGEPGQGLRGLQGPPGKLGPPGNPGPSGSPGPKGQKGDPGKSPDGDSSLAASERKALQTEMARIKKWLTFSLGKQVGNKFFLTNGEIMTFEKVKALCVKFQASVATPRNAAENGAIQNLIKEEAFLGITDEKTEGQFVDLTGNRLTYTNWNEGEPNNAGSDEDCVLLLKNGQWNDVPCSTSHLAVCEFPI

Drawing on publication PMC5717261, this text covers binding for 2 molecules.

Results are given in words; binding and its absence hold for the method and conditions named. Some results given as binding are weak or reduced against the parent protein; the word gives no strength. Sequences can lack the tags named with a protein.

B1: Recombinant human mammalian tolloid-like-1 (mTLL-1) with a C-terminal 6x-His tag (enzyme, UniProt O43897 148-1013)
chain: AATSRTERIWPGGVIPYVIGGNFTGSQRAMFKQAMRHWEKHTCVTFIERSDEESYIVFTYRPCGCCSYVGRRGNGPQAISIGKNCDKFGIVVHELGHVIGFWHEHTRPDRDNHVTIIRENIQPGQEYNFLKMEPGEVNSLGERYDFDSIMHYARNTFSRGMFLDTILPSRDDNGIRPAIGQRTRLSKGDIAQARKLYRCPACGETLQESNGNLSSPGFPNGYPSYTHCIWRVSVTPGEKIVLNFTTMDLYKSSLCWYDYIEVRDGYWRKSPLLGRFCGDKLPEVLTSTDSRMWIEFRSSSNWVGKGFAAVYEAICGGEIRKNEGQIQSPNYPDDYRPMKECVWKITVSESYHVGLTFQSFEIERHDNCAYDYLEVRDGTSENSPLIGRFCGYDKPEDIRSTSNTLWMKFVSDGTVNKAGFAANFFKEEDECAKPDRGGCEQRCLNTLGSYQCACEPGYELGPDRRSCEAACGGLLTKLNGTITTPGWPKEYPPNKNCVWQVVAPTQYRISVKFEFFELEGNEVCKYDYVEIWSGLSSESKLHGKFCGAEVPEVITSQFNNMRIEFKSDNTVSKKGFKAHFFSDKDECSKDNGGCQHECVNTMGSYMCQCRNGFVLHDNKHDCKEAECEQKIHSPSGLITSPNWPDKYPSRKECTWEISATPGHRIKLAFSEFEIEQHQECAYDHLEVFDGETEKSPILGRLCGNKIPDPLVATGNKMFVRFVSDASVQRKGFQATHSTECGGRLKAESKPRDLYSHAQFGDNNYPGQVDCEWLLVSERGSRLELSFQTFEVEEEADCGYDYVELFDGLDSTAVGLGRFCGSGPPEEIYSIGDSVLIHFHTDDTINKKGFHIRYKSIRYPDTTHTKK
For B1, the binding result is “binds weakly”.

B2: Recombinant human bone morphogenetic protein-1 (BMP-1) with a C-terminal FLAG tag (enzyme, UniProt P13497-2 121-730)
chain: AATSRPERVWPDGVIPFVIGGNFTGSQRAVFRQAMRHWEKHTCVTFLERTDEDSYIVFTYRPCGCCSYVGRRGGGPQAISIGKNCDKFGIVVHELGHVVGFWHEHTRPDRDRHVSIVRENIQPGQEYNFLKMEPQEVESLGETYDFDSIMHYARNTFSRGIFLDTIVPKYEVNGVKPPIGQRTRLSKGDIAQARKLYKCPACGETLQDSTGNFSSPEYPNGYSAHMHCVWRISVTPGEKIILNFTSLDLYRSRLCWYDYVEVRDGFWRKAPLRGRFCGSKLPEPIVSTDSRLWVEFRSSSNWVGKGFFAVYEAICGGDVKKDYGHIQSPNYPDDYRPSKVCIWRIQVSEGFHVGLTFQSFEIERHDSCAYDYLEVRDGHSESSTLIGRYCGYEKPDDIKSTSSRLWLKFVSDGSINKAGFAVNFFKEVDECSRPNRGGCEQRCLNTLGSYKCSCDPGYELAPDKRRCEAACGGFLTKLNGSITSPGWPKEYPPNKNCIWQLVAPTQYRISLQFDFFETEGNDVCKYDFVEVRSGLTADSKLHGKFCGSEKPEVITSQYNNMRVEFKSDNTVSKKGFKAHFFSEKRPALQPPRGRPHQLKFRVQKRNRTPQ
For the molecule B2, the binding result is “binds weakly”.
